Data as given in paper PMC12808100, “The non-catalytic DNA polymerase ε subunit is an NPF motif recognition protein” (Nature Communications, 2025).

What was measured:
POLE2 WT = assay: Proximity labeling MS, MAC3-tagged POLE2 WT in Flp-In T-REx 293 cells; assay type: cell-based, human; settings: bait POLE2_WT, spectral count
POLE2 Y311F = assay: Proximity labeling MS, POLE2 Y311F; settings: bait POLE2_Y311F, spectral count

B1: ABT1 (protein, UniProt Q9ULW3 1-272, looked up)
Activator of basal …: MEAEESEKAATEQEPLEGTEQTLDAEEEQEESEEAACGSKKRVVPGIVYLGHIPPRFRPLHVRNLLSAYGEVGRVFFQAEDRFVRRKKKAAAAAGGKKRSYTKDYTEGWVEFRDKRIAKRVAASLHNTPMGARRRSPFRYDLWNLKYLHRFTWSHLSEHLAFERQVRRQRLRAEVAQAKRETDFYLQSVERGQRFLAADGDPARPDGSWTFAQRPTEQELRARKAARPGGRERARLATAQDKARSNKGLLARIFGAPPPSESMEGPSLVRDS
Spec (POLE2 WT; replicate 1): 9 | Spec (POLE2 WT; replicate 2): 11 | Spec (POLE2 WT; replicate 3): 13 | Spec (POLE2 WT; replicate 4): 4 | Spec (POLE2 WT; replicate 5): 2 | Spec (POLE2 Y311F; replicate 1): 11 | Spec (POLE2 Y311F; replicate 2): 8
